Publication PMC3812156
Results are given in words; binding and its absence hold for the method and conditions named. In cells and extracts the contact can be indirect. Some results given as binding are weak or reduced against the parent protein; the word gives no strength.

The chains behind the UniProt entries cited, without tags or fusion partners.
UniProt Q9Z2D7: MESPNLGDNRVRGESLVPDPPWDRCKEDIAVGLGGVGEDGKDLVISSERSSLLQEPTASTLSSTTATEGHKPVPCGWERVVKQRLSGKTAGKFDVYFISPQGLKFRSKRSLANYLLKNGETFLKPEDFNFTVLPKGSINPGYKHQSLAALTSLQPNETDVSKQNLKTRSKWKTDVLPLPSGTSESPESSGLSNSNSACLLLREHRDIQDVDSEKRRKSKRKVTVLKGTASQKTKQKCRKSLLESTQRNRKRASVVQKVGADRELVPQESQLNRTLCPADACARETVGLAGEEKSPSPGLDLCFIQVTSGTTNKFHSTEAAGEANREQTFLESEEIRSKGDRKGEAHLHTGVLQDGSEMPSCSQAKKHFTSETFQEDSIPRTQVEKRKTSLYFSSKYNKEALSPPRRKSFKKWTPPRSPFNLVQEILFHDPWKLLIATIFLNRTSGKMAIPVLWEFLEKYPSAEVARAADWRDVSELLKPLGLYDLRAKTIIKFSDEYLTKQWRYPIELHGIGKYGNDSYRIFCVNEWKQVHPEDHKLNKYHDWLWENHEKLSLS
UniProt Q9JK91: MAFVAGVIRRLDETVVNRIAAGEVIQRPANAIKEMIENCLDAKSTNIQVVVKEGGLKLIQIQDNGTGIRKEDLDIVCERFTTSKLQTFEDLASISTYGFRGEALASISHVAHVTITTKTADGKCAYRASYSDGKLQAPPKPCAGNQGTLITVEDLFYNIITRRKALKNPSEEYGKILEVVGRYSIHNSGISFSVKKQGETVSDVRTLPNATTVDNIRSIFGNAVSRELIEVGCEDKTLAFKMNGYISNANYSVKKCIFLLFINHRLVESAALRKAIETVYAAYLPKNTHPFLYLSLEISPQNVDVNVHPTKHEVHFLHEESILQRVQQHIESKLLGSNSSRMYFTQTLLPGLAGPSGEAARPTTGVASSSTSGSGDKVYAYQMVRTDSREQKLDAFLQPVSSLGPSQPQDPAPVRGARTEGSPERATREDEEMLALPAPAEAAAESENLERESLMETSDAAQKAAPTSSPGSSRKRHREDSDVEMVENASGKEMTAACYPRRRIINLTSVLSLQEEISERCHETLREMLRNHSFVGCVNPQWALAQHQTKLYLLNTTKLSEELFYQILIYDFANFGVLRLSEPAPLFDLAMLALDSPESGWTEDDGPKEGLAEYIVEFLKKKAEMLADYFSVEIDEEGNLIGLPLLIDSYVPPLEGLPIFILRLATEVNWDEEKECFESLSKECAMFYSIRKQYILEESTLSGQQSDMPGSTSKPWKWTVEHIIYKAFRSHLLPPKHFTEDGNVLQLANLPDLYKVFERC

How the values were obtained:
[1] = target: Methyl CpG binding domain protein 4 (MBD4) (mouse (endogenous in CH12.F3)) (UniProt Q9Z2D7); assay: co-IP; nuclear extracts (100 µg) of CH12.F3 cells induced with CIT for 24 hours; IP with anti-MLH1 or anti-MBD4 Abs (anti-GFP as control) and protein-A beads, 4°C; DTT omitted, final NaCl 100 mM; Western blot
[2] = target: MutL homologue 1 (MLH1) (mouse (endogenous in CH12.F3)) (UniProt Q9JK91); assay: as above

Row | Substance | binding [1] | binding [2]
1 | MutL homologue 1 (MLH1) (from UniProt Q9JK91 1-760) | binds | –
2 | Methyl CpG binding domain protein 4 (MBD4) (from UniProt Q9Z2D7 1-554) | – | binds
